According to article PMC10721806:
These are yes or no findings as the source states them, for the method shown. In cells and extracts the contact can be indirect. Some binding calls cover weakened binding; strength is not graded here.

Amino acid sequences for entries named in this document (tags omitted). Residues count along the entry.
UniProt P41738, residues 10-853: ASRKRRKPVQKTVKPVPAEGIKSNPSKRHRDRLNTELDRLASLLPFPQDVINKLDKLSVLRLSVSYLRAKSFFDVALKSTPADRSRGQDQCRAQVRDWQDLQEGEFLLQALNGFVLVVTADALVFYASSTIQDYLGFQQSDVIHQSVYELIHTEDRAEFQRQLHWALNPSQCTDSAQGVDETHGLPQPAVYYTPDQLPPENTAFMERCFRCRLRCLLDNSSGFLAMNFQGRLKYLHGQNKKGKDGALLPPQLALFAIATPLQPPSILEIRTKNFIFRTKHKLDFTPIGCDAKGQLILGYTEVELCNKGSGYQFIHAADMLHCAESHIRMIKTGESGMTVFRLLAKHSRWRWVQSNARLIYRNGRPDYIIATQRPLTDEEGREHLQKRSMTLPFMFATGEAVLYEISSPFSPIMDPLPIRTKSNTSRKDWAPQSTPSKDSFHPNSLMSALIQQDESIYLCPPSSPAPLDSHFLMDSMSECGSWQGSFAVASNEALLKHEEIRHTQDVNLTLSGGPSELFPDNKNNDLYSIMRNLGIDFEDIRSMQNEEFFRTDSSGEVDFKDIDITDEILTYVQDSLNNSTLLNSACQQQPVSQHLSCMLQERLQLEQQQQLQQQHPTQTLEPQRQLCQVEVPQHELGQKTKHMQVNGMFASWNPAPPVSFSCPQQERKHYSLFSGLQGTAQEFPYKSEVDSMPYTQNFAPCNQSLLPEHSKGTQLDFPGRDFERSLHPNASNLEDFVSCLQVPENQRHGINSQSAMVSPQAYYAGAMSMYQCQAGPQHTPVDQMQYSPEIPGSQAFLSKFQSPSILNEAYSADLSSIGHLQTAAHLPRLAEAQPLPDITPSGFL
UniProt Q6DGG0: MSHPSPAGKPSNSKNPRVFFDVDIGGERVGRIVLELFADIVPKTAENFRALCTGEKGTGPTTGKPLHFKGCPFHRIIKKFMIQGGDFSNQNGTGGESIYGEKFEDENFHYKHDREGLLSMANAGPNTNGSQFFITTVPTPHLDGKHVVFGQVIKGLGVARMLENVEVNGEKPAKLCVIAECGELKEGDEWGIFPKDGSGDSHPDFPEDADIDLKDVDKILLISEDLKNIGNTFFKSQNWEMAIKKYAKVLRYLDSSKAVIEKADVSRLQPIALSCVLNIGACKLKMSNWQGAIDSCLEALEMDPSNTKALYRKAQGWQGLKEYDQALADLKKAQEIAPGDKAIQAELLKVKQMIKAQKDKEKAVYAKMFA

Biological target: aryl hydrocarbon receptor (AhR) (rat (endogenous in osteoclasts from SD rat BMMCs)) (UniProt P41738)
Assay: co-IP; lysate (IP lysis buffer) of osteoclasts cocultured with sensory neurons transfected with EGFP-tagged Cyp40; antibodies against AhR and GFP with Protein A or Protein G magnetic beads, 4 °C overnight; immunoblotting

- binding: binds
Substance: EGFP-tagged peptidyl-prolyl cis-trans isomerase D (Cyp40) (from UniProt Q6DGG0 1-370)
